# Measured values from publication PMC7251119.
# These are yes or no findings as the source states them, for the method shown.
# B1: SetA(1-644) (protein, UniProt Q5ZU30 1-644)
# chain: MYKIYSYLGWRIDMKTENLPQAGQEAQIDKKIHFIWVGHIMPQKNIQVVSEWAEKNPGYETIIWVDKKIAPAKELDLFILDMKSKGITVKDINEEGVCRDSIRHELDQESPNYGMVSDMLRLNILAAEGGIYLDSDILCSAPFPDEIYAPFGFLLSPWSQGANNTLCNDIILCSKGNQIIQQLADAIEQSYIARDSFEFTHEYASMKETKGERIAKTLGVTGPGFLFHQLKKMGILNDKSEMEAIHWELQDQRYLIDGSVKEPDYFYVPQNNTNDASWVPSIKRPGIENMSFQERLENAVQLIAFDIQKTGLFNLDHYANELKVKQNSWCIAAETSPELKPDSYLLIRPRDKTGEWTLYYVDEDKKLNPVTLPVIKGAIKLSEVSDPLRKFHTLLSQVSDPVNPTAHELKQIGRALIELKPRQDEWHCKNKWSGAEEIAQELWQRITSNETLRAQIKQCFTQFESLKPRVAELGLTRASGAGTEVEAHESTVKEQEIISQNTVGEEGTKEKNSVQLASENSSDEKIKTAHDLIDEIIQDVIQLDGKLGLLGGNTRQLEDGRVINIPNGAAMIFDDYKKYKQGELTAESALESMIKIAKLSNQLNRHTFFNQRQPETGQFYKKVAAIDLQTTIAAEYDNNHGLRI
# Target: SetA(1-644) (Legionella pneumophila) (UniProt Q5ZU30)
# Test: SEC; […]; 20 mM Tris-HCl (pH 7.5) plus 100 mM NaCl or 300 mM NaCl; […]; both purified
binder,measurement,value
B1,binding,no binding
